Source: the supplement of paper PMC6078165
Values are relative to the signal before dosing, not to a vehicle control; the signal also falls without drug.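 Labels refer to human fibroblasts, largely primary: uterine (C12385, HUF), lung (H6013), bone (Hs27A), adrenal (HADF), skin (WS1), plus mammary HMF and breast cancer-associated Hs343T. Cancer lines are basal-like or mesenchymal-like triple-negative breast cancer. The paper counts as hits responses shifting over 3x the replicate standard deviation. The tissue of the other fibroblasts is not given here.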

System: HCC1143
Test: relative JC-1 red fluorescence (viability) vs pre-drug, coculture with fibroblast (fraction); higher = more viable cancer cells
Experimental: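 JC-1 labelled TNBC cells cocultured 1:1 (1,500 cells each) with CellTrace Violet stained primary or stromal fibroblasts in 384-well plates in FluoroBrite medium, treated with one of 42 anticancer drugs at 0.1, 1, 10 or 100 uM. JC-1 red fluorescence (mitochondrial integrity in cancer cells only) was read by plate reader every 8 h for 72 h. Values are normalised to each well's pre-drug value. The stock of one drug was tenfold lower, so its dose labels may be too high.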

O=NN(CCCl)C(=O)NCCCl [Carmustine]
relative JC-1 red fluorescence
Settings | 8 h | 16 h | 24 h | 32 h | 40 h | 48 h | 56 h | 64 h | 72 h
0.1 µM, coculture fibroblast: C12385 | 0.853 | 0.754 | 0.678 | 0.595 | 0.513 | 0.456 | 0.417 | 0.361 | 0.338
0.1 µM, coculture fibroblast: H6013 | 0.81 | 0.744 | 0.685 | 0.666 | 0.593 | 0.577 | 0.545 | 0.523 | 0.496
0.1 µM, coculture fibroblast: H6019 | 0.8065 | 0.718 | 0.668 | 0.598 | 0.543 | 0.504 | 0.451 | 0.408 | 0.365
0.1 µM, coculture fibroblast: H6076 | 0.819 | 0.798 | 0.737 | 0.727 | 0.662 | 0.652 | 0.621 | 0.597 | 0.617
0.1 µM, coculture fibroblast: H6231 | 0.8466 | 0.8549 | 0.8163 | 0.774 | 0.764 | 0.75 | 0.7218 | 0.687 | 0.668
0.1 µM, coculture fibroblast: HADF | 0.7362 | 0.6665 | 0.6138 | 0.6071 | 0.521 | 0.498 | 0.46 | 0.435 | 0.41
0.1 µM, coculture fibroblast: HCFa | 0.78 | 0.684 | 0.625 | 0.601 | 0.51 | 0.471 | 0.425 | 0.391 | 0.366
0.1 µM, coculture fibroblast: HCPF | 0.807 | 0.811 | 0.729 | 0.646 | 0.629 | 0.599 | 0.559 | 0.521 | 0.504
0.1 µM, coculture fibroblast: HHSteC | 0.831 | 0.737 | 0.671 | 0.641 | 0.557 | 0.51 | 0.466 | 0.434 | 0.391
0.1 µM, coculture fibroblast: HMF | 0.812 | 0.7658 | 0.71 | 0.717 | 0.636 | 0.626 | 0.592 | 0.579 | 0.576
0.1 µM, coculture fibroblast: HPFa | 0.9167 | 0.8319 | 0.7902 | 0.696 | 0.627 | 0.591 | 0.521 | 0.465 | 0.426
0.1 µM, coculture fibroblast: HUF | 0.8606 | 0.769 | 0.705 | 0.63269 | 0.579 | 0.5506 | 0.5033 | 0.4691 | 0.4415
0.1 µM, coculture fibroblast: Hs5 | 0.8506 | 0.778 | 0.746 | 0.754 | 0.6666 | 0.644 | 0.6174 | 0.5938 | 0.5955
0.1 µM, coculture fibroblast: Hs27A | 0.683 | 0.592 | 0.542 | 0.562 | 0.426 | 0.401 | 0.348 | 0.31 | 0.296
0.1 µM, coculture fibroblast: Hs343T | 0.807 | 0.794 | 0.721 | 0.709 | 0.634 | 0.601 | 0.564 | 0.537 | 0.525
0.1 µM, coculture fibroblast: WS1 | 0.809 | 0.711 | 0.648 | 0.581 | 0.518 | 0.475 | 0.425 | 0.389 | 0.36
1 µM, coculture fibroblast: C12385 | 0.821 | 0.776 | 0.711 | 0.671 | 0.604 | 0.578 | 0.548 | 0.517 | 0.51
1 µM, coculture fibroblast: H6013 | 0.729 | 0.674 | 0.635 | 0.608 | 0.549 | 0.538 | 0.504 | 0.488 | 0.444
1 µM, coculture fibroblast: H6019 | 0.808 | 0.7508 | 0.7141 | 0.64471 | 0.606 | 0.5827 | 0.5361 | 0.4931 | 0.459
1 µM, coculture fibroblast: H6076 | 0.8024 | 0.739 | 0.717 | 0.722 | 0.6548 | 0.655 | 0.638 | 0.622 | 0.644
1 µM, coculture fibroblast: H6231 | 0.8028 | 0.77 | 0.706 | 0.66 | 0.609 | 0.584 | 0.5491 | 0.51226 | 0.498
1 µM, coculture fibroblast: HADF | 0.7305 | 0.648 | 0.6039 | 0.594 | 0.5049 | 0.483 | 0.449 | 0.423 | 0.389
1 µM, coculture fibroblast: HCFa | 0.787 | 0.731 | 0.682 | 0.661 | 0.585 | 0.557 | 0.51 | 0.473 | 0.449
1 µM, coculture fibroblast: HCPF | 0.776 | 0.729 | 0.687 | 0.645 | 0.606 | 0.573 | 0.549 | 0.52 | 0.511
1 µM, coculture fibroblast: HHSteC | 0.792 | 0.728 | 0.694 | 0.657 | 0.594 | 0.57 | 0.532 | 0.502 | 0.441
1 µM, coculture fibroblast: HMF | 0.807 | 0.763 | 0.734 | 0.743 | 0.686 | 0.671 | 0.652 | 0.644 | 0.64
1 µM, coculture fibroblast: HPFa | 0.876 | 0.8004 | 0.756 | 0.662 | 0.6 | 0.561 | 0.491 | 0.436 | 0.393
1 µM, coculture fibroblast: HUF | 0.835 | 0.7543 | 0.708 | 0.628 | 0.5858 | 0.557 | 0.51 | 0.482 | 0.456
1 µM, coculture fibroblast: Hs5 | 0.841 | 0.772 | 0.749 | 0.752 | 0.666 | 0.642 | 0.619 | 0.588 | 0.582
1 µM, coculture fibroblast: Hs27A | 0.715 | 0.624 | 0.579 | 0.579 | 0.466 | 0.46 | 0.405 | 0.373 | 0.331
1 µM, coculture fibroblast: Hs343T | 0.798 | 0.773 | 0.719 | 0.668 | 0.61 | 0.578 | 0.544 | 0.523 | 0.50439
1 µM, coculture fibroblast: WS1 | 0.7826 | 0.7075 | 0.673 | 0.597 | 0.544 | 0.507 | 0.466 | 0.439 | 0.412
10 µM, coculture fibroblast: C12385 | 0.854 | 0.7606 | 0.672 | 0.604 | 0.536 | 0.49 | 0.448 | 0.403 | 0.371
10 µM, coculture fibroblast: H6013 | 0.769 | 0.671 | 0.634 | 0.615 | 0.552 | 0.548 | 0.517 | 0.496 | 0.443
10 µM, coculture fibroblast: H6019 | 0.796 | 0.684 | 0.628 | 0.561 | 0.51 | 0.491 | 0.44 | 0.397 | 0.359
10 µM, coculture fibroblast: H6076 | 0.814 | 0.816 | 0.7457 | 0.71 | 0.652 | 0.6374 | 0.6 | 0.576 | 0.577
10 µM, coculture fibroblast: H6231 | 0.826 | 0.828 | 0.736 | 0.652 | 0.65 | 0.62 | 0.583 | 0.543 | 0.515
10 µM, coculture fibroblast: HADF | 0.7892 | 0.729 | 0.708 | 0.715 | 0.6293 | 0.606 | 0.564 | 0.534 | 0.508
10 µM, coculture fibroblast: HCFa | 0.792 | 0.712 | 0.69 | 0.675 | 0.601 | 0.578 | 0.531 | 0.505 | 0.478
10 µM, coculture fibroblast: HCPF | 0.814 | 0.8 | 0.738 | 0.676 | 0.641 | 0.617 | 0.576 | 0.541 | 0.527
10 µM, coculture fibroblast: HHSteC | 0.7935 | 0.689 | 0.645 | 0.603 | 0.512 | 0.472 | 0.43 | 0.397 | 0.36
10 µM, coculture fibroblast: HMF | 0.807 | 0.843 | 0.754 | 0.682 | 0.651 | 0.618 | 0.573 | 0.549 | 0.529
10 µM, coculture fibroblast: HPFa | 0.888 | 0.798 | 0.7463 | 0.658 | 0.5814 | 0.5438 | 0.4782 | 0.4253 | 0.379
10 µM, coculture fibroblast: HUF | 0.863 | 0.7726 | 0.694 | 0.615 | 0.564 | 0.522 | 0.479 | 0.446 | 0.411
10 µM, coculture fibroblast: Hs5 | 0.862 | 0.815 | 0.7913 | 0.796 | 0.714 | 0.693 | 0.669 | 0.64 | 0.648
10 µM, coculture fibroblast: Hs27A | 0.722 | 0.628 | 0.574 | 0.588 | 0.479 | 0.454 | 0.404 | 0.368 | 0.337
10 µM, coculture fibroblast: Hs343T | 0.822 | 0.842 | 0.79 | 0.734 | 0.686 | 0.663 | 0.618 | 0.581 | 0.556
10 µM, coculture fibroblast: WS1 | 0.861 | 0.767 | 0.703 | 0.626 | 0.562 | 0.5193 | 0.478 | 0.439 | 0.411
100 µM, coculture fibroblast: C12385 | 0.843 | 0.79 | 0.756 | 0.715 | 0.665 | 0.641 | 0.618 | 0.587 | 0.58
100 µM, coculture fibroblast: H6013 | 0.792 | 0.767 | 0.758 | 0.757 | 0.727 | 0.741 | 0.704 | 0.69 | 0.632
100 µM, coculture fibroblast: H6019 | 0.801 | 0.731 | 0.69 | 0.62 | 0.582 | 0.562 | 0.506 | 0.459 | 0.418
100 µM, coculture fibroblast: H6076 | 0.80691 | 0.754 | 0.744 | 0.746 | 0.683 | 0.68 | 0.664 | 0.656 | 0.675
100 µM, coculture fibroblast: H6231 | 0.8042 | 0.805 | 0.761 | 0.687 | 0.68 | 0.656 | 0.632 | 0.602 | 0.597
100 µM, coculture fibroblast: HADF | 0.76 | 0.72 | 0.684 | 0.671 | 0.598 | 0.586 | 0.558 | 0.54 | 0.513
100 µM, coculture fibroblast: HCFa | 0.762 | 0.687 | 0.642 | 0.617 | 0.54 | 0.514 | 0.467 | 0.438 | 0.404
100 µM, coculture fibroblast: HCPF | 0.815 | 0.777 | 0.745 | 0.705 | 0.682 | 0.656 | 0.626 | 0.604 | 0.602
100 µM, coculture fibroblast: HHSteC | 0.8319 | 0.8058 | 0.775 | 0.75 | 0.692 | 0.675 | 0.641 | 0.617 | 0.567
100 µM, coculture fibroblast: HMF | 0.7833 | 0.786 | 0.723 | 0.648 | 0.628 | 0.602 | 0.566 | 0.541 | 0.521
100 µM, coculture fibroblast: HPFa | 0.878 | 0.806 | 0.777 | 0.678 | 0.622 | 0.59 | 0.522 | 0.4788 | 0.4359
100 µM, coculture fibroblast: HUF | 0.865 | 0.778 | 0.731 | 0.663 | 0.612 | 0.594 | 0.546 | 0.514 | 0.489
100 µM, coculture fibroblast: Hs5 | 0.8535 | 0.841 | 0.8103 | 0.7879 | 0.715 | 0.689 | 0.669 | 0.659 | 0.66
100 µM, coculture fibroblast: Hs27A | 0.744 | 0.724 | 0.699 | 0.724 | 0.632 | 0.654 | 0.629 | 0.618 | 0.578
100 µM, coculture fibroblast: Hs343T | 0.804 | 0.816 | 0.763 | 0.685 | 0.657 | 0.624 | 0.589 | 0.57 | 0.546
100 µM, coculture fibroblast: WS1 | 0.818 | 0.76 | 0.73 | 0.669 | 0.622 | 0.59 | 0.549 | 0.516 | 0.49
